According to patent EP0977560B1 (PAZ Arzneimittel- Entwicklungsgesellschaft mbH, priority 1997, dated 1998):
Some of these results come from one statement about several compounds together.

Tested on: Transkriptionsfaktors NF-κB
Assay: Electro mobility shift assay (DIG Gel Shift Kit) of NF-κB activation in TPA-stimulated Jurkat cells
Format: cell-based
Conditions: general statement in the description, refers to Abbildung 1
Description: Einfluß von R-Ibuprofen-CoA-Thioester auf die Aktivierung des Transkriptionsfaktors NF-κB in Jurkat-Zellen. […] Spur 1 zeigt die unstimulierten, Spur 2 die stimulierten Kontrollzellen.

SMILES | Hemmer der Aktivierung des nukleären Transkriptionsfaktors Nf-κB
CC(C)Cc1ccc([C@@H](C)C(=O)SCCNC(=O)CCNC(=O)[C@H](O)C(C)(C)COP(=O)(O)OP(=O)(O)OC[C@H]2O[C@@H](n3cnc4c(N)ncnc43)[C@H](O)[C@@H]2OP(=O)(O)O)cc1 [R-Ibuprofen-CoA-Thioester] | potente und spezifische Hemmer der Aktivierung
CC(C)Cc1ccc([C@H](C)C(=O)SCCNC(=O)CCNC(=O)[C@H](O)C(C)(C)COP(=O)(O)OP(=O)(O)OC[C@H]2O[C@@H](n3cnc4c(N)ncnc43)[C@H](O)[C@@H]2OP(=O)(O)O)cc1 [S-Ibuprofen CoA-Thioester] | potente und spezifische Hemmer der Aktivierung
